These results are taken from paper doi:10.1101/2025.01.14.633073.

These are yes or no findings as the source states them, for the method shown. In cells and extracts the contact can be indirect. Some binding calls cover weakened binding; strength is not graded here.

The target of this assay is Inositol-Requiring Enzyme 1 (IRE-1), human (human (endogenous in A549)), O75460. The assay can be described thus: co-IP. Particulars: remark: other sources report otherwise.

B1: Sec-62, human, Q99442 1-399 (protein)
chain: MAERRRHKKRIQEVGEPSKEEKAVAKYLRFNCPTKSTNMMGHRVDYFIASKAVDCLLDSKWAKAKKGEEALFTTRESVVDYCNRLLKKQFFHRALKVMKMKYDKDIKKEKDKGKAESGKEEDKKSKKENIKDEKTKKEKEKKKDGEKEESKKEETPGTPKKKETKKKFKLEPHDDQVFLDGNEVYVWIYDPVHFKTFVMGLILVIAVIAATLFPLWPAEMRVGVYYLSVGAGCFVASILLLAVARCILFLIIWLITGGRHHFWFLPNLTADVGFIDSFRPLYTHEYKGPKADLKKDEKSETKKQQKSDSEEKSDSEKKEDEEGKVGPGNHGTEGSGGERHSDTDSDRREDDRSQHSSGNGNDFEMITKEELEQQTDGDCEEDEEEENDGETPKSSHEKS
With B1, the binding entry is “binds”.
